The subject of experiment [1] is Leishmania major. Briefly: Antileishmanial activity against Leishmania major amastigotes assessed as reduction in parasite growth incubated for 72 hrs by MTT assay. It counts as functional, organism-based.
Experiment [2] relates to Leishmania major. Briefly: Antileishmanial activity against Leishmania major promastigotes assessed as reduction in parasite growth incubated for 72 hrs by MTT assay. It counts as functional, organism-based.

Molecules are shown by their SMILES. In brackets after ≈: the same amount, converted by molar mass.

For the compound `COc1c(O)cc2c(c1OC)-c1ccc(OC)c(=O)cc1[C@@H](NC(C)=O)CC2` [3-DESMETHYLCOLCHICIN], the IC50 worked out at 11.9 µg/mL (≈ 30.9 µM) in the experiment with Leishmania major [1] and 0.8 µg/mL (≈ 2.08 µM) with Leishmania major [2].

Source of the values: ChEMBL document CHEMBL5532635, “The role of natural anti-parasitic guided development of synthetic drugs for leishmaniasis” (Eur J Med Chem, 2023).
